In publication PMC7732092:
No constants are given. Whether binding was seen depends on the method and setting. In cells and extracts the contact can be indirect. Some results given as binding are weak or reduced against the parent protein; the word gives no strength.

Chains of the proteins cited; added tags and fusions are not shown.
UniProt Q9Y657: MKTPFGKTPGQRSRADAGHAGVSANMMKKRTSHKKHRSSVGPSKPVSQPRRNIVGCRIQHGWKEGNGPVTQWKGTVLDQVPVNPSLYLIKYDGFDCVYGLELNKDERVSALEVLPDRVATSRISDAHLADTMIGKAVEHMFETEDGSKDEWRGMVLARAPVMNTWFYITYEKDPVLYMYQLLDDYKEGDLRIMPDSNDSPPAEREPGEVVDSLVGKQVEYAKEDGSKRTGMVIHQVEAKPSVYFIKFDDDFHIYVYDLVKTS
UniProt P03165: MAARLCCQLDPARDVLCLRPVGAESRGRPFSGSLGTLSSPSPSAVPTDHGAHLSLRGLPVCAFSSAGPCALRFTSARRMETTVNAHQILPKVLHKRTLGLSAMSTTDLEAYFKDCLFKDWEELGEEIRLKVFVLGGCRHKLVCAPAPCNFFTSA

Legend:
[1] = target: His-myc-Spindlin1 (UniProt Q9Y657); assay: co-IP; HEK293 cells transfected with His-myc-Spin1 and HA-HBx; immunoprecipitation with anti-Myc antibodies; Western blot with anti-His or anti-Myc and anti-HA antibodies
[2] = target: Spindlin1 (endogenous) (human (endogenous in HepG2)) (UniProt Q9Y657); assay: co-IP; whole-cell extracts of HepG2 cells transduced with a lentiviral vector encoding Flag-HA-HBx; immunoprecipitation with anti-Spindlin1 antibodies; Western blot with anti-HA or anti-Spin1 antibodies
[3] = target: Flag-tagged HBx wt (hepatitis B virus) (UniProt P03165); assay: co-IP; HEK293 cells co-transfected with Flag-tagged HBx and His-myc-Spin1; immunoprecipitation with anti-Flag antibodies; anti-Myc and anti-Flag immunoblot, Odyssey system; signal normalised to HBx in the IP/HBx in the input

## HA-HBx (from UniProt P03165 1-154)
[1]
  binding: binds

## Flag-HA-HBx (from UniProt P03165 1-154)
[2]
  binding: binds

## His-myc-Spindlin1 (from UniProt Q9Y657 1-262)
[3]
  binding: binds
